Taken from: PubChem BioAssay AID1259405 (NCATS, 2018)
In all, the deposit lists about 50,000 reagents; below is a random part of them. About 4,000 of them (8%) count as active. 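Mouse siRNA library applied to hamster cells; one well for each siRNA.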 Reagents against one gene are numbered here.

Screen: 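Silenced genes that increase secreted GFP made by CHO cells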 (primary screen)
Cell system: Chinese hamster CHO-K1 ovary cells with stable secreted eGFP expression
Knock-down reagent: single siRNA against mouse genes, 0.8 pmol siRNA per well (2 µl of 400 nM stock)
Duration: 3 days
Measured: 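Percent of the per-plate non-targeting control median for intracellular GFP per well by laser scanning cytometry and for cell viability by ATP luminescence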
Scale: GFP, % of control: higher = more GFP per well, higher productivity; viability (ATP), % of control: higher = more viable cells (more ATP)
Hit rule: 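a knock-down is called active if GFP reaches 120% or more of non-targeting control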

gene knocked down,reagent no.,"GFP, % of control","viability (ATP), % of control",Call
Hnrnpll,1,112,125,inactive
Hnrnpll,2,65.6,92.6,inactive
Hnrnpll,3,89.7,98.6,inactive
Abtb1,1,99.8,80.2,inactive
Abtb1,2,75.5,106,inactive
Abtb1,3,76.7,79.6,inactive
Clrn1,1,71.9,67.4,inactive
Clrn1,2,64.6,78,inactive
Clrn1,3,74.5,88.8,inactive
Dmrt1,1,155,133,active
Dmrt1,2,82.4,98.3,inactive
Dmrt1,3,52.8,37.1,inactive
Dbr1,1,86.9,65,inactive
Dbr1,2,74.3,68.9,inactive
Dbr1,3,93.2,77,inactive
Hs2st1,1,76.1,44.5,inactive
Hs2st1,2,130,138,active
Hs2st1,3,85.8,100,inactive
Tigd5,1,68.5,71.1,inactive
Tigd5,2,80.6,96.2,inactive
Ccser2,1,67.2,58.5,inactive
Ccser2,2,58.7,58.3,inactive
Ccser2,3,79.7,80.7,inactive
Llph,1,116,115,inactive
Llph,2,64.8,69.4,inactive
Llph,3,98.4,82.1,inactive
Plcb1,1,72,85.5,inactive
Plcb1,2,125,110,active
Plcb1,3,88.1,62.9,inactive
Tbrg1,1,35.4,38.5,inactive
Tbrg1,2,57.9,75,inactive
Tbrg1,3,98.8,90.7,inactive
Timm8b,1,47.8,51.9,inactive
Timm8b,2,126,74,active
Timm8b,3,108,105,inactive
Arl15,1,61.9,87.7,inactive
Arl15,2,57,49.9,inactive
Arl15,3,65.2,64,inactive
Fbxw14,1,83.1,66.8,inactive
Fbxw14,2,160,120,active
Fbxw14,3,97,62.2,inactive
Prrx2,1,111,104,inactive
Prrx2,2,99.3,76.4,inactive
Aanat,1,38.1,46.7,inactive
Aanat,2,96.2,129,inactive
Aanat,3,70.2,88.8,inactive
Ecel1,1,67.1,82.5,inactive
Ecel1,2,105,70.9,inactive
Ecel1,3,132,85.2,active
Gnmt,1,105,86.5,inactive
Gnmt,2,123,87.4,active
Gja5,1,33.6,48.3,inactive
Gja5,2,95.6,88.6,inactive
Gja5,3,115,115,inactive
Pofut3,1,157,117,active
Pofut3,2,95,135,inactive
Pofut3,3,88,120,inactive
Or5b108,1,54.8,72.8,inactive
Or5b108,2,62.9,89.1,inactive
Or5b108,3,53.9,77.5,inactive
Zwint,1,73.5,45.3,inactive
Zwint,2,89.3,71.3,inactive
Zwint,3,88.2,72.8,inactive
Slco1b2,1,63.8,87.5,inactive
Slco1b2,2,67.6,53.3,inactive
Slco1b2,3,101,71.2,inactive
Rxfp1,1,94.6,69.8,inactive
Rxfp1,2,60.3,58.2,inactive
Rxfp1,3,90.3,84.4,inactive
Rel,1,103,97.8,inactive
Rel,2,56.7,74.2,inactive
Rel,3,65.9,96.5,inactive
Alyref,1,85.3,99.7,inactive
Alyref,2,62.8,77.1,inactive
Lnpep,1,102,96.5,inactive
Lnpep,2,59.4,64.8,inactive
Lnpep,3,80.4,97.8,inactive
Lactb2,1,84.9,48.7,inactive
Lactb2,2,94.3,96.7,inactive
Lactb2,3,68.1,48.7,inactive
Grik2,1,62.3,96.5,inactive
Grik2,2,52,55.7,inactive
Grik2,3,56.1,63.7,inactive
Myl4,1,38.6,50.6,inactive
Myl4,2,86.7,77.2,inactive
Myl4,3,61.5,69.5,inactive

Single entries from the entries so far.
Entry for Dbr1 #1 in “GFP, % of control”: 86.9
Lactb2 #1, viability (ATP), % of control → 48.7
Lnpep #2, GFP, % of control: 59.4
Slco1b2 #1, GFP, % of control = 63.8
Value of Rxfp1 #1 in “GFP, % of control”: 94.6
For “Call”, Gja5 #1 reads inactive
